{"source": "patent US4639333", "about": "(dated 1987)", "test": "general procedure: peptide synthesis; trypsin (enzymatic transpeptidation with amino acid tert-butyl esters)", "details": "late stage modification step"}
{"substance": "Example 2 bovine insulin B30-Ala-O(tBu)", "values": [{"measurement": "crude HPLC purity", "result": 67, "unit": "%"}]}
